PMC9560605
These are yes or no findings as the source states them, for the method shown. Binding seen in cells or lysates may run through a third protein. Binding can be weak; no strength is given.

Chains of the proteins cited; added tags and fusions are not shown. Lines headed by an entry give the natural chain unless they say otherwise; changes in a name come on top.
UniProt Q9TZB2: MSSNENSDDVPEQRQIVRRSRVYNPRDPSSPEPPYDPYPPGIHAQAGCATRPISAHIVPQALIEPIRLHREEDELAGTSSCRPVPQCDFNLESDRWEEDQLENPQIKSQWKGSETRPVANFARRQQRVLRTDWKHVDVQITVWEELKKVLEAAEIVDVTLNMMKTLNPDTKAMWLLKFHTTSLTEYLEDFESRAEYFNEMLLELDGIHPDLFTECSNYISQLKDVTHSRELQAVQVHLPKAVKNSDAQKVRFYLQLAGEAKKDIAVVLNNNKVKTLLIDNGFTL
UniProt Q3V5H4: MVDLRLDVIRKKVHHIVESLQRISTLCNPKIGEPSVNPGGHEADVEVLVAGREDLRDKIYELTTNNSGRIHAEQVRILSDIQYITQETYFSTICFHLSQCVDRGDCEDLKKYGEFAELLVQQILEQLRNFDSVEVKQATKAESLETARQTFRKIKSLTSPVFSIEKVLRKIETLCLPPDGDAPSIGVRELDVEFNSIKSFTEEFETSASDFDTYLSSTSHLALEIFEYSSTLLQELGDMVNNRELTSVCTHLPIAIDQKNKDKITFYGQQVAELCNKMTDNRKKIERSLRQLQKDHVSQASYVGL

Target: PALS-22::GFP::3xFLAG (C. elegans) (UniProt Q9TZB2)
Test: co-IP; anti-FLAG M2 affinity gel on 1 mg C. elegans lysate (1 ug/ul) of strains expressing PALS-22::GFP::3xFLAG (pals-22p, vha-6p or dpy-7p) or GFP::3xFLAG (spp-5p), 4°C, 2 h; Western blot with anti-PALS-25

In the case of “PALS-25(WT), endogenous (from UniProt Q3V5H4)”, the binding is reported as “binds”.
